# Reference: paper PMC11757107
# Protein sequences, listed by entry. Tags and fused reporters are not part of them. Residues count along the entry.
# UniProt P24593, residues 21-272: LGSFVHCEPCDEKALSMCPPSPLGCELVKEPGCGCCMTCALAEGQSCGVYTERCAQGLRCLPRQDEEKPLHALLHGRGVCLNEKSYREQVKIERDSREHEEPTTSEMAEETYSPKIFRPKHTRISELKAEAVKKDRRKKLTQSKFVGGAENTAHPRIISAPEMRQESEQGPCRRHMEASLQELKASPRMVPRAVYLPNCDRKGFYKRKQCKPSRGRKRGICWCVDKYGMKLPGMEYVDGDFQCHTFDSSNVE
# UniProt P07355: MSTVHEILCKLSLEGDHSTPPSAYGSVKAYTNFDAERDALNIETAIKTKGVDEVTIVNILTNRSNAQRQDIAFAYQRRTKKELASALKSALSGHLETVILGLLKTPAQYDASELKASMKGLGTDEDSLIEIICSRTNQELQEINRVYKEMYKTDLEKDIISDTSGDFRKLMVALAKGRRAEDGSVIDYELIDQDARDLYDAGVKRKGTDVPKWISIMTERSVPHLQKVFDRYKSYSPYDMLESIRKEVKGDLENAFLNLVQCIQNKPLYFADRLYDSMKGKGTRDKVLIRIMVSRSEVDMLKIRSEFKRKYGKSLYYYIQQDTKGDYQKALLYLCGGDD
# UniProt O00206, residues 24-839: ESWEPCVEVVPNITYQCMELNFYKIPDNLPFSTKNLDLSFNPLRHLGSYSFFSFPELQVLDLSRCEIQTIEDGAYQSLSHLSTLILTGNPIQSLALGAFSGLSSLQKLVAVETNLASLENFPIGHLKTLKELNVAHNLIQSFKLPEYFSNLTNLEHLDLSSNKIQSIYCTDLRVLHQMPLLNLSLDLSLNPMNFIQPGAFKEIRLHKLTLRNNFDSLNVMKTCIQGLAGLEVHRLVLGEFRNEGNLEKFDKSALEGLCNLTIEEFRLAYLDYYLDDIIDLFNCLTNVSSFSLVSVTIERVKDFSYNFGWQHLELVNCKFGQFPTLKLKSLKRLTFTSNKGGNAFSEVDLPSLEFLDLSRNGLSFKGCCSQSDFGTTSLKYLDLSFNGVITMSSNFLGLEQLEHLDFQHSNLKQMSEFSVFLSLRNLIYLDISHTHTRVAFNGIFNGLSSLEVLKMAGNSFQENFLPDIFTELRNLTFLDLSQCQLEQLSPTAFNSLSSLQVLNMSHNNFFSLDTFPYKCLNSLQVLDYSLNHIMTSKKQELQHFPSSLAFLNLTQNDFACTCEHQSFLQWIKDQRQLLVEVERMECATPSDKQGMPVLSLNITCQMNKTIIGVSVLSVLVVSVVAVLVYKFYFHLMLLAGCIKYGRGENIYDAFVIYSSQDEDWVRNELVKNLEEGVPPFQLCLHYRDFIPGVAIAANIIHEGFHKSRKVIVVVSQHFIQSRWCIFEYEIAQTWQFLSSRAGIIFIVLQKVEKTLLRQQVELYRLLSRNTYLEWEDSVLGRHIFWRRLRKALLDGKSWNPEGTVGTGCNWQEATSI
# Results are given in words; binding and its absence hold for the method and conditions named. In cells and extracts the contact can be indirect. Some results given as binding are weak or reduced against the parent protein; the word gives no strength.
# Tests used:
# [1] = molecular target: IGFBP5 (human (endogenous in THP-1)) (UniProt P24593); assay: co-IP; normal THP-1 cell lysate (NP-40 buffer); IP with anti-IGFBP5 or anti-ANXA2 antibody overnight at 4°C, protein A/G magnetic beads, western blot
# [2] = molecular target: ANXA2 (human (endogenous in THP-1)) (UniProt P07355); assay: as above
# [3] = molecular target: ANXA2 (human (endogenous in THP-1)) (UniProt P07355); assay: co-IP; ANXA2-IP from THP-1 lysates, TLR4 by western blot; normal or IGFBP5-silenced cells; untreated, LPS (500 ng/ml) or LPS + IGFBP5 (50 ng/ml) for 6 h
substance,measurement,setting,value
ANXA2 (from UniProt P07355 1-339),binding,[1],binds
IGFBP5 (from UniProt P24593 21-272),binding,[2],binds
TLR4 (from UniProt O00206 24-839) (receptor),binding,[3],binds
